Source: US8053477B2, “Inhibitors of the S100-p53 protein-protein interaction and method of inhibiting cancer employing the same” (University of Maryland, Baltimore, priority 2002, dated 2011)
For some assays here: Part of at least one peptide drawing is inferred or uncertain, most often the ends. Some of these results come from one statement about several compounds together. Where no end group is shown, it is not given here.

What was measured:
S100B [1] = biological target: T1, S100B (UniProt P04631); test: Fluorescence binding / competition titrations of small molecules to S100B; conditions: direct fluorescence, F43W S100B or peptide-probe competition; 25° C., calcium present; read-out: Kd (binding to S100B, fluorescence spectroscopy)
T1 sequence (P04631 1-92): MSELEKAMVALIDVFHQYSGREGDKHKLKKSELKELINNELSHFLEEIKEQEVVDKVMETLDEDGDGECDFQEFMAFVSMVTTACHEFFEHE
Description: Inhibition of binding of S100 proteins to p53 can be assayed by fluorescence binding/competition assays. For example, binding to S100B is monitored using fluorescent peptides such as the F43W p53 peptide ([…] (SEQ ID NO:1)) or the TRTK-12 peptide ([…] (SEQ ID NO:2)) that both contain fluorescent tryptophan residues (see Example 7). In such an assay, the binding of the peptide is monitored by changes in its fluorescence intensity at 350-370 nm in the presence of 10-20 mM calcium chloride (pH 7.4). Displacement of the peptide by the test compound is then monitored by a corresponding decrease in fluorescence intensity and the dissociation constant of the test compound from S100B is calculated using a standard competition equation (KD=Kapp/(1+[floursecent peptide]/KD peptide). The amino acid residues on S100B to which the test compound binds can then monitored by chemical shift perturbations using NMR spectroscopy.
The binding of the small molecules to S100B identified in the CADD search were measured using fluorescence spectroscopy. The compounds identified are as follows:
Compounds that fluorescent (i.e., for Compounds 9, 31 and 33) were measured by a direct binding assay to S100B via fluorescence intensity changes. […] First, changes in tyrosine fluorescence (for Tyr-17 of S100B) were sufficient in some cases to evaluate binding (Rustandi et al (1998), supra; and Szabo et al, FEBS Lett., 94:249-252 (1978)). However, to circumvent problems associated with the low quantum yield of the tyrosine residue, the F43W mutant of S100B was used (FIG. 12A), and then competition studies were done with wild-type S100B (FIG. 12B). In this S100B construct (in F43W S100B), the tryptophan residue is located in the target protein binding site, so the emission of the tryptophan mutant was measured in a straightforward manner at 338 nm as a function of adding compound. This F43W mutant has similar structure, Ca^2+-binding and target binding properties of wild-type S100B. Another approach was to bind a fluorescent probe to wild-type S100B and do competition binding assays with the compound. […] Steady state experiments to determine binding constants were performed on Aminco Bowman Series 2 Luminescence Spectrophotofluorometer with the temperature of the cell (quartz cuvettes) maintained at 25° C. Two internal controls were performed in all titrations. EGTA was added to S100B to chelate the calcium and determine whether the interaction with the drug requires the Ca^2+-dependent conformational change observed for a number of protein targets (Weber et al, supra). In addition, the titrations were performed in the absence of calcium as a control. All compounds with fluorescence emission spectra were also routinely evaluated for photobleaching before proceeding. […]

S100B [2] = biological target: T1, S100B; design: other: versus unmutated p53 peptide (Rustandi et a); conditions: versus unmutated p53 peptide (Rustandi et al 1998); cited from earlier work

Cc1c(NS(=O)(=O)c2ccc(NC(=O)CCC(=O)O)cc2)c(=O)n(-c2ccccc2)n1C [Compound 4, 4-(4-{[(1,5-dimethyl-3-oxo-2-phenyl-2,3,dihydro-1H-pyrazol-4-yl)amino]sulfonyl}anilino)-4-oxo butanoic acid] showed a Kd (S100B [1]) of under 2 µM.

For “SHLKSKKGQSTSRHKKLMWKTE [p53 (F385W), reference compound]”, the “increase in affinity of the p53 peptide for S100B on F385W mutation” value (S100B [2]) is listed as 5 fold.

CCn1cc(C(=O)O)c(=O)c2cc(F)c(NN=Cc3ccccc3[N+](=O)[O-])cc21 [Compound 24, 1-Ethyl-6-fluoro-7-[N′-(2-nitro-benzylidene)-hydrazino]-4-oxo-1,4-dihydro-quinoline-3-carboxylic acid] showed a Kd (S100B [1]) of under 200 µM.

Work on O=C(Cc1n[nH]c(=O)[nH]c1=O)N/N=C/c1ccc(C(=O)O)cc1 [Compound 51, 4-{[2-(3,5-Dioxo-2,3,4,5-tetrahydro-[1,2,4]triazin-6-yl)-acetyl]-hydrazonomethyl}-benzoic acid] yielded a Kd (S100B [1]) of under 10 µM.

COc1cc(C2Nc3ccccc3-c3nc(SC)nnc3O2)ccc1OCC(=O)O (centres unmarked) [Compound 33, 1,2-(3-methylthiotraizine),3,4-phenyl,6-[(2-methoxyphenoxy)Acetic Acid]morpholine] gave a Kd (S100B [1]) of under 10 µM.
